At least one structure is not confirmed: it was looked up by name or label, or the drawing left a doubt.
Tested on: NFAT
Assay: Gal-3BP-induced IL-2 secretion with or without NFAT inhibitors (ELISA)
Format: cell-based, human
Conditions: inhibitor 1 μM with Gal-3BP 10 μg/ml; M0 macrophages; FIG. 6A-6B
Procedure: Measurement of cytokines was carried out with Ready set Go ELISA kits (eBioscience).
To determine if NFAT is required for Gal-3BP-induced IL-2 secretion, human blood monocytes were incubated with M-CSF (100 ng/ml) for 6 days to produce monocyte-derived macrophages (M0). […] Macrophages were alternatively treated with Gal-3BP (10 μg/ml) in the absence or presence of CSA (1 μM) or FK506 (1 μM), another known NFAT inhibitor (FIG. 6B). […] (P values are ***0.0004, **0.006 and *0.034)

C=CC[C@@H]1/C=C(\C)C[C@H](C)C[C@H](OC)[C@H]2O[C@@](O)(C(=O)C(=O)N3CCCC[C@H]3C(=O)O[C@H](/C(C)=C/[C@@H]3CC[C@@H](O)[C@H](OC)C3)[C@H](C)[C@@H](O)CC1=O)[C@H](C)C[C@@H]2OC [FK506, reference compound] was tested, and the “Inhibition of Gal-3BP-induced IL-2 secretion” value was “inhibited IL-2 secretion”.
